# Measured values published in patent US20040058318.
# Chains of the proteins cited; added tags and fusions are not shown. A line that says so, or that is headed by a name, gives the form on record, which may keep a tag or linker. Residues count along the entry.
# UniProt P42224, 1-712: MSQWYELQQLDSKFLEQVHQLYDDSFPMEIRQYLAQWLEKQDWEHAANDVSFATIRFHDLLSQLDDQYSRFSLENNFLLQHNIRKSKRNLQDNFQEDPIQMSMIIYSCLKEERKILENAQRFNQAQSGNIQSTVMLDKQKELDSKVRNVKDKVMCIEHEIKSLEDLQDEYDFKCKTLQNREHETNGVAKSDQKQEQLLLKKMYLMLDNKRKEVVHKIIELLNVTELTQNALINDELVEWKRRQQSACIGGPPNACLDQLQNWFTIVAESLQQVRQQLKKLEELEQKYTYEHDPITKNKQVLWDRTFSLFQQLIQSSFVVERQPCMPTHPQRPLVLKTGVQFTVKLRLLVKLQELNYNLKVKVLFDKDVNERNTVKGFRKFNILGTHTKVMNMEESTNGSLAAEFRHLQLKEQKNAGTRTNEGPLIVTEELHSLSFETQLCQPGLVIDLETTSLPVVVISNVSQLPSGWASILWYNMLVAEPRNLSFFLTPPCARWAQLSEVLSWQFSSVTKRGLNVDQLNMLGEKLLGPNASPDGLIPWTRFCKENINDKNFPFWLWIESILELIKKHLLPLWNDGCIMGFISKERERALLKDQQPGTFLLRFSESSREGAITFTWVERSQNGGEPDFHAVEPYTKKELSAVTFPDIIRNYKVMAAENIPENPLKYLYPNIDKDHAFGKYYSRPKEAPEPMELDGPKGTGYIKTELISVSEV
# Stat84/Stat91L heterodimer (Homo sapiens), one chain, as listed by the source, chain 1 of 2: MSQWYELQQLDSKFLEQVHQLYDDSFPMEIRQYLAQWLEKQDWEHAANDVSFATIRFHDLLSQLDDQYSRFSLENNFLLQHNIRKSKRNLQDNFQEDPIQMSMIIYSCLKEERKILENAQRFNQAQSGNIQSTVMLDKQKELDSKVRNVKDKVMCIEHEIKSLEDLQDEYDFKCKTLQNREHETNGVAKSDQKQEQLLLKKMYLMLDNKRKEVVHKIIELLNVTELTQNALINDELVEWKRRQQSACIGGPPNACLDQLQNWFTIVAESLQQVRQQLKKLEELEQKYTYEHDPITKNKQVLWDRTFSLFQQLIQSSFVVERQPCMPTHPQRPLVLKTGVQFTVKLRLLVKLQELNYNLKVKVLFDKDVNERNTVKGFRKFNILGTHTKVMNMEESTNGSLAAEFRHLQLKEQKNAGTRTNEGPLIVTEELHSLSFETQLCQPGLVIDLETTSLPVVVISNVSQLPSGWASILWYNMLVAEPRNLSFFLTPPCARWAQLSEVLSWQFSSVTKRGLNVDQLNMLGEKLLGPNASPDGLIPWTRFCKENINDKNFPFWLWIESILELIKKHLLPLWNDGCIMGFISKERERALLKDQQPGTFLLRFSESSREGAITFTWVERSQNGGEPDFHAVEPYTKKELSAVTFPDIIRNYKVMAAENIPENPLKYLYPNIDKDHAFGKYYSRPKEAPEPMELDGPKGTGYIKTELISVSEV
# Stat84/Stat91L heterodimer (Homo sapiens), one chain, as listed by the source, chain 2 of 2: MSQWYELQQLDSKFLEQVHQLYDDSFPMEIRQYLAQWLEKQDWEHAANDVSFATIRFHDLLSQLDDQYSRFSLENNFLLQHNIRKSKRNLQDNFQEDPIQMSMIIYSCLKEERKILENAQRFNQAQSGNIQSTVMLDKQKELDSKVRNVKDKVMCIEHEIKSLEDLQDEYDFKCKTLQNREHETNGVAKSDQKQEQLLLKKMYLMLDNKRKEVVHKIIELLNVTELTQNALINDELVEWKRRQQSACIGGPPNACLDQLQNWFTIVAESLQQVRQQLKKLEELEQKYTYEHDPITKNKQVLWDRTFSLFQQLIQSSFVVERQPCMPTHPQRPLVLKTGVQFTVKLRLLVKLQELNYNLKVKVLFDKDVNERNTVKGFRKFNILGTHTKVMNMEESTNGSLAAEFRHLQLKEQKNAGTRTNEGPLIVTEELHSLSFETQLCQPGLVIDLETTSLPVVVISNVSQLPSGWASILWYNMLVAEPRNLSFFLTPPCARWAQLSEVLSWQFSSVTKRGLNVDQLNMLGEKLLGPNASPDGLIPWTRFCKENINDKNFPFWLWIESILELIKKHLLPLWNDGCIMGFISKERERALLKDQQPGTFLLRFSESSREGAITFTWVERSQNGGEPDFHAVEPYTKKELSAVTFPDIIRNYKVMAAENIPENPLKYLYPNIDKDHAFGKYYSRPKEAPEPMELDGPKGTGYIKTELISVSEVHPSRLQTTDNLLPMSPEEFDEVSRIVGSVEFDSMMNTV
# Where cells or extracts were used, other partners may take part. For some assays here: Negatives hold for the conditions tested.
# What was measured:
# Assay in all cases: EMSA
# [1] = target: Stat91 (Stat1 alpha), unphosphorylated monomer (Homo sapiens) (UniProt P42224); settings: only phosphorylated dimer has sequence-specific DNA binding; protein in an extract; protein details: unphosphorylated; label: 32P
# [2] = target: Stat91 (Stat1 alpha, 91 kD), tyrosine phosphorylated homodimer (Homo sapiens) (UniProt P42224); settings: IFN-gamma-treated Bud8 extract glycerol gradient fractions; DNA binding peak correlates with phosphorylated dimer; protein in an extract; protein details: phosphorylated on Tyr701 (IFN-gamma-treated cells); label: 32P
# [3] = target: Stat84 (Stat1 beta, 84 kD) homodimer (Homo sapiens) (UniProt P42224); settings: protein in an extract; protein details: phosphorylated, expressed in U3A cells (C84); label: 32P
# [4] = target: Stat91L homodimer (Homo sapiens) (UniProt P42224); settings: IFN-gamma-treated C91L extract; slower band; blocked by 160 uM phosphopeptide GY*IKTE; protein in an extract; label: 32P
# [5] = tested on: Stat84/Stat91L heterodimer (Homo sapiens); settings: intermediate band in Cmx extracts; also after guanidinium denaturation-renaturation of mixed extracts; protein in an extract; label: 32P
sequence,measurement,setting,value
"GATCGAGATGTATTTCCCAGAAAAG (double strand) [GAS element, human FcgammaRI receptor gene]",binding result,[1],no binding
same,binding result,[2],binds
same,binding result,[3],binds
same,binding result,[4],binds
same,binding result,[5],binds
